Laboratory results from PubChem BioAssay AID248 (DTP/NCI, 2004).
The list is a part of this screen's results and no random one: it gathers tests that were run many times, whatever their T/C, doses with no T/C, and many T/C values between a quarter and a half above the control. Other doses and runs of a compound stand elsewhere. T/C gives the treated animals as a percentage of the vehicle group. Some doses have a count of surviving animals in place of a T/C: the source holds a T/C of zero for them, seemingly a mark for toxic or unscored doses. Some survivor counts are full or nearly so, which does not show that the dose was tolerated: survival well below the control is almost never listed, so the zero probably covers shortened survival too. Counts of survivors are from the toxicity check (mostly the fifth day) where no day follows; animals may have died later. Schedules are NCI's codes, taken here to give the interval after Q, in days (D) or hours (H), and the number of doses after X. Some molecules as drawn cover several salts, stereoisomers or complexes of the source; a dose is that of the sample tested. Some doses were run more than once; the values are given in rising order. For survival time, the PubChem record calls one and a half times the control and up active, and a quarter to a half above the control has no call in these data; cut-offs in other NCI protocols can differ. Some schedule codes hold Z or #, which are not explained here. Some T/C values are followed by the survivors on the day toxicity was checked, most often the fifth; where none is given, no animal had died by that day.

System: L1210 leukemia ip in BDF1 mice, survival T/C
Experiment: NCI In Vivo Anticancer Drug Screen. Data for tumor model L1210 Leukemia (intraperitoneal) in B6D2F1 (BDF1) mice
Conditions: T/C endpoint: mean survival time, higher T/C = longer survival
[1] = dose: 50.0 mg/kg/injection, schedule: Q01DX009 (ip), vehicle: saline with Tween-80
[2] = dose: 100.0 mg/kg/injection, schedule: Q01DX001 (ip), vehicle: saline

## C[n+]1ccc(Nc2ccc(NC(=O)c3ccc(Nc4cc[n+](C)c5ccc(N)cc45)cc3N)cc2)cc1
dose: 0.5 mg/kg/injection, schedule: Q03HX024 (ip), vehicle: water
  T/C: 139 % of control
dose: 1.0 mg/kg/injection, schedule: Q01DX009 (ip), vehicle: water, evaluated on day 30
  T/C: 131 and 133 % of control
dose: 1.0 mg/kg/injection, schedule: Q01DX009 (ip), vehicle: water, evaluated on day 60
  T/C: 129 % of control
dose: 1.0 mg/kg/injection, schedule: Q03HX008 (ip), vehicle: water
  T/C: 127 % of control
dose: 2.0 mg/kg/injection, schedule: Q01DX009 (sc), vehicle: water
  T/C: 133 % of control [7 of 8 alive]
dose: 2.0 mg/kg/injection, schedule: Q04DX003 (ip), vehicle: water
  T/C: 125 % of control
dose: 3.13 mg/kg/injection, schedule: Q01DX009 (ip), vehicle: saline
  T/C: 129 % of control
dose: 4.0 mg/kg/injection, schedule: Q01DX005 (iv), vehicle: water
  survivor count: 2 of 8 and 3 of 10
dose: 4.0 mg/kg/injection, schedule: Q04DX003 (ip), vehicle: water, evaluated on day 30
  T/C: 133 % of control
dose: 4.0 mg/kg/injection, schedule: Q04DX003 (ip), vehicle: water, evaluated on day 60
  T/C: 138 % of control
dose: 6.25 mg/kg/injection, schedule: Q01DX001 (ip), vehicle: saline with Tween-80
  T/C: 144 % of control
dose: 6.25 mg/kg/injection, schedule: Q01DX009 (ip), vehicle: saline with Tween-80
  T/C: 257, 308, 329, 336 % of control
dose: 6.25 mg/kg/injection, schedule: Q04DX002 (ip), vehicle: saline with Tween-80
  T/C: 135 % of control
dose: 6.25 mg/kg/injection, schedule: Q04DX003 (ip), vehicle: saline with Tween-80
  T/C: 141 % of control
dose: 6.25 mg/kg/injection, schedule: Q04DX003 (ip), vehicle: saline
  T/C: 144 % of control
dose: 8.0 mg/kg/injection, schedule: Q01DX002 (ip), vehicle: water
  T/C: 127 % of control
dose: 8.0 mg/kg/injection, schedule: Q03HX016 (ip), vehicle: water
  survivor count: 4 of 10
dose: 8.0 mg/kg/injection, schedule: Q04DX003 (ip), vehicle: water
  T/C: 135 % of control
dose: 8.0 mg/kg/injection, schedule: Q04DX003 (iv), vehicle: water
  survivor count: 0 of 10
dose: 12.5 mg/kg/injection, schedule: Q01DX001 (ip), vehicle: saline with Tween-80
  T/C: 146 % of control
dose: 12.5 mg/kg/injection, schedule: Q01DX009 (ip), vehicle: saline with Tween-80
  T/C: 294, 297, 322, 336 % of control
dose: 12.5 mg/kg/injection, schedule: Q04DX002 (ip), vehicle: saline with Tween-80
  T/C: 140, 159, 165, 220 % of control
dose: 16.0 mg/kg/injection, schedule: Q01DX001 (ip), vehicle: water
  T/C: 133 % of control [8 of 10 alive]
dose: 16.0 mg/kg/injection, schedule: Q01DX009 (ip), vehicle: water
  survivor count: 0 of 10, 5 of 10, 6 of 10
dose: 16.0 mg/kg/injection, schedule: Q03HX008 (ip), vehicle: water
  survivor count: 3 of 10
dose: 16.0 mg/kg/injection, schedule: Q03HX016 (ip), vehicle: water
  survivor count: 6 of 10
dose: 16.0 mg/kg/injection, schedule: Q03HX024 (ip), vehicle: water
  survivor count: 7 of 10
dose: 25.0 mg/kg/injection, schedule: Q01DX009 (ip), vehicle: saline with Tween-80
  T/C: 114 [5 of 6 alive], 117 [2 of 3 alive], 275 [5 of 6 alive], 336 % of control
dose: 25.0 mg/kg/injection, schedule: Q01DX009 (ip), vehicle: saline
  T/C: 143 % of control
dose: 25.0 mg/kg/injection, schedule: Q04DX002 (ip), vehicle: saline with Tween-80
  T/C: 101, 226, 245, 300 % of control
dose: 32.0 mg/kg/injection, schedule: Q01DX001 (ip), vehicle: water
  survivor count: 6 of 10
dose: 32.0 mg/kg/injection, schedule: Q01DX005 (ip), vehicle: water
  survivor count: 0 of 10
dose: 32.0 mg/kg/injection, schedule: Q01DX009 (ip), vehicle: water
  survivor count: 0 of 10 and 1 of 10
dose: 32.0 mg/kg/injection, schedule: Q04DX003 (ip), vehicle: water
  survivor count: 3 of 10, 4 of 10, 5 of 10
dose: 32.0 mg/kg/injection, schedule: Q08DX002 (ip), vehicle: water
  survivor count: 3 of 10
dose: 50.0 mg/kg/injection, schedule: Q01DX001 (ip), vehicle: saline with Tween-80
  survivor count: 3 of 6
[1]
  T/C: 125 and 209 % of control
  survivor count: 3 of 3 and 6 of 6
dose: 50.0 mg/kg/injection, schedule: Q01DX009 (ip), vehicle: saline
  survivor count: 1 of 6
dose: 50.0 mg/kg/injection, schedule: Q04DX002 (ip), vehicle: saline with Tween-80
  T/C: 90, 104, 270, 322 % of control
dose: 50.0 mg/kg/injection, schedule: Q04DX003 (ip), vehicle: saline with Tween-80
  survivor count: 3 of 6
dose: 64.0 mg/kg/injection, schedule: Q01DX001 (ip), vehicle: water
  survivor count: 0 of 10
dose: 64.0 mg/kg/injection, schedule: Q01DX005 (ip), vehicle: water
  survivor count: 0 of 10
dose: 64.0 mg/kg/injection, schedule: Q01DX009 (ip), vehicle: water
  survivor count: 0 of 10
dose: 64.0 mg/kg/injection, schedule: Q04DX003 (ip), vehicle: water
  survivor count: 3 of 10
dose: 64.0 mg/kg/injection, schedule: Q08DX002 (ip), vehicle: water
  survivor count: 0 of 10
[2]
  T/C: 146 % of control
dose: 100.0 mg/kg/injection, schedule: Q01DX009 (ip), vehicle: Klucel (hydroxypropylcellulose) (HPC)
  survivor count: 0 of 6
dose: 100.0 mg/kg/injection, schedule: Q04DX002 (ip), vehicle: saline with Tween-80
  survivor count: 1 of 3 and 2 of 6
dose: 100.0 mg/kg/injection, schedule: Q04DX003 (ip), vehicle: saline
  survivor count: 2 of 6 and 4 of 6
dose: 128.0 mg/kg/injection, schedule: Q01DX001 (ip), vehicle: water
  survivor count: 0 of 10
dose: 128.0 mg/kg/injection, schedule: Q04DX003 (ip), vehicle: water
  survivor count: 0 of 10
dose: 128.0 mg/kg/injection, schedule: Q08DX002 (ip), vehicle: water
  survivor count: 0 of 10
dose: 200.0 mg/kg/injection, schedule: Q04DX002 (ip), vehicle: saline with Tween-80
  survivor count: 0 of 6 and 1 of 3
dose: 200.0 mg/kg/injection, schedule: Q04DX003 (ip), vehicle: saline
  survivor count: 1 of 6
dose: 400.0 mg/kg/injection, schedule: Q04DX002 (ip), vehicle: saline with Tween-80
  survivor count: 0 of 3 and 0 of 6
dose: 400.0 mg/kg/injection, schedule: Q04DX003 (ip), vehicle: saline
  survivor count: 1 of 6

## CC(C)COC(=O)C1(N)CCCC1
dose: 30.0 mg/kg/injection, schedule: Q01DX009 (ip), vehicle: saline
  survivor count: 0 of 6
dose: 66.0 mg/kg/injection, schedule: Q01DX Z (ip), vehicle: saline
  T/C: 125 % of control [5 of 6 alive]
dose: 100.0 mg/kg/injection, schedule: Q01DX009 (ip), vehicle: saline
  T/C: 135 % of control
dose: 100.0 mg/kg/injection, schedule: Q01DX Z (ip), vehicle: saline
  T/C: 129 and 136 % of control
dose: 150.0 mg/kg/injection, schedule: Q01DX009 (ip), vehicle: saline
  T/C: 131 % of control

## O=NN(CCCl)C(=O)NC1CCC(O)CC1 (configuration not stated)
dose: 6.25 mg/kg/injection, schedule: Q01DX001 (ip), vehicle: saline
  T/C: 127, 129, 138 % of control
dose: 12.5 mg/kg/injection, schedule: Q01DX001 (ip), vehicle: saline
  T/C: 128 % of control
dose: 13.0 mg/kg/injection, schedule: Q01DX001 (ip), vehicle: saline
  T/C: 142 % of control
dose: 67.0 mg/kg/injection, schedule: Q01DX001 (ip), vehicle: saline
  survivor count: 5 of 5
dose: 90.0 mg/kg/injection, schedule: Q01DX001 (ip), vehicle: saline
  T/C: 147 % of control
[2]
  survivor count: 5 of 6
dose: 133.0 mg/kg/injection, schedule: Q01DX001 (ip), vehicle: saline
  survivor count: 9 of 10
dose: 150.0 mg/kg/injection, schedule: Q01DX001 (ip), vehicle: saline
  survivor count: 6 of 6
dose: 200.0 mg/kg/injection, schedule: Q01DX001 (ip), vehicle: saline
  survivor count: 8 of 10

## Nc1cccc(CCCCc2ccccc2)c1
dose: 400.0 mg/kg/injection, schedule: Q01DX001 (ip), vehicle: saline with Tween-80
  survivor count: 1 of 6
